# These are yes or no findings as the source states them, for the method shown.
# Experiments:
# [1] = biological target: PorE OmpA_C-like putative peptidoglycan-binding domain (Porphyromonas gingivalis) (UniProt F5HF80); assay: crystal structure; both purified
# [2] = biological target: PorE OmpA_C-like putative peptidoglycan-binding domain (Porphyromonas gingivalis) (UniProt F5HF80); assay: SEC-MALS; Superdex 200 Increase 10/300 GL, 10 mM HEPES pH 7.4, 200 mM NaCl, 0.6 mL/min; purified, concentrated protein; both purified
substance,measurement,setting,value
PorE OmpA_C-like putative peptidoglycan-binding domain (from UniProt F5HF80 534-668) (domain or fragment),binding,[1],no binding
same,binding,[2],no binding

# — publication PMC7192894
